Measured values as given in patent US7238720B2, “Pharmaceutical use of N-carbamoylazole derivatives” (Eisai R & D Management Co. Ltd., priority 2001, dated 2007).
For at least one compound, name, drawing or mass did not settle the structure.

Tested on: male C57BL/6N mice
Assay: Glucose-tolerance improving effects in normal mice, Experiments 1 and 2 (compound given orally mixed with glucose)
Type: in vivo
Conditions: oral administration, result in words
Protocol: Test for Identifying Glucose-Tolerance Improving Effects
Effects on Glucose-Tolerance Ability of Normal Mice
Animals: Five or six male C57BL/6N mice per group (purchased from Charles River Japan, Inc.).
Compounds to be tested were suspended in a 0.5% aqueous solution of methylcellulose and mixed with an equal volume of a glucose solution, and administered orally at a volume of 10 ml/kg at doses indicated in Tables below. Vehicle control groups received orally a mixture of a 0.5% aqueous solution of methylcellulose and an equal volume of a glucose solution at a volume of 10 ml/kg. Glucose was given at a dose of 2 g/kg.
The blood was drawn from the tail vein immediately before and at 30, 60, and 120 minutes after the administration of mixed solutions of the compounds to be tested and glucose, and subjected to the measurement of the blood glucose value.
The tail vein of the mice was injured, without anesthesia, with a razor to cause slight bleeding. Ten microliters of blood was collected, and mixed immediately with […] of 0.6 M perchloric acid. The glucose in supernatants obtained by centrifugation (1500 g, 10 min. 4° C., in a cooled centrifuge GS-6KR from Beckman Ltd.) was determined employing a Glucose CII Test Wako kit (Wako Pure Chemical Industries, Ltd.).
The results are expressed by mean value±standard error.

For `CN(C)C(=O)n1cnc(S(=O)(=O)Cc2ccccc2)n1` [Example 2, 3-Benzylsulfonyl-1-dimethylcarbamoyl-1H-1,2,4-triazole], the “effect on glucose-tolerance ability of normal mice” value was “distinct effect”.
